Source: article PMC10629813

Sequences of proteins named here, by UniProt entry; tags and fusion partners are left off. Residues count along the entry.
UniProt Q14839: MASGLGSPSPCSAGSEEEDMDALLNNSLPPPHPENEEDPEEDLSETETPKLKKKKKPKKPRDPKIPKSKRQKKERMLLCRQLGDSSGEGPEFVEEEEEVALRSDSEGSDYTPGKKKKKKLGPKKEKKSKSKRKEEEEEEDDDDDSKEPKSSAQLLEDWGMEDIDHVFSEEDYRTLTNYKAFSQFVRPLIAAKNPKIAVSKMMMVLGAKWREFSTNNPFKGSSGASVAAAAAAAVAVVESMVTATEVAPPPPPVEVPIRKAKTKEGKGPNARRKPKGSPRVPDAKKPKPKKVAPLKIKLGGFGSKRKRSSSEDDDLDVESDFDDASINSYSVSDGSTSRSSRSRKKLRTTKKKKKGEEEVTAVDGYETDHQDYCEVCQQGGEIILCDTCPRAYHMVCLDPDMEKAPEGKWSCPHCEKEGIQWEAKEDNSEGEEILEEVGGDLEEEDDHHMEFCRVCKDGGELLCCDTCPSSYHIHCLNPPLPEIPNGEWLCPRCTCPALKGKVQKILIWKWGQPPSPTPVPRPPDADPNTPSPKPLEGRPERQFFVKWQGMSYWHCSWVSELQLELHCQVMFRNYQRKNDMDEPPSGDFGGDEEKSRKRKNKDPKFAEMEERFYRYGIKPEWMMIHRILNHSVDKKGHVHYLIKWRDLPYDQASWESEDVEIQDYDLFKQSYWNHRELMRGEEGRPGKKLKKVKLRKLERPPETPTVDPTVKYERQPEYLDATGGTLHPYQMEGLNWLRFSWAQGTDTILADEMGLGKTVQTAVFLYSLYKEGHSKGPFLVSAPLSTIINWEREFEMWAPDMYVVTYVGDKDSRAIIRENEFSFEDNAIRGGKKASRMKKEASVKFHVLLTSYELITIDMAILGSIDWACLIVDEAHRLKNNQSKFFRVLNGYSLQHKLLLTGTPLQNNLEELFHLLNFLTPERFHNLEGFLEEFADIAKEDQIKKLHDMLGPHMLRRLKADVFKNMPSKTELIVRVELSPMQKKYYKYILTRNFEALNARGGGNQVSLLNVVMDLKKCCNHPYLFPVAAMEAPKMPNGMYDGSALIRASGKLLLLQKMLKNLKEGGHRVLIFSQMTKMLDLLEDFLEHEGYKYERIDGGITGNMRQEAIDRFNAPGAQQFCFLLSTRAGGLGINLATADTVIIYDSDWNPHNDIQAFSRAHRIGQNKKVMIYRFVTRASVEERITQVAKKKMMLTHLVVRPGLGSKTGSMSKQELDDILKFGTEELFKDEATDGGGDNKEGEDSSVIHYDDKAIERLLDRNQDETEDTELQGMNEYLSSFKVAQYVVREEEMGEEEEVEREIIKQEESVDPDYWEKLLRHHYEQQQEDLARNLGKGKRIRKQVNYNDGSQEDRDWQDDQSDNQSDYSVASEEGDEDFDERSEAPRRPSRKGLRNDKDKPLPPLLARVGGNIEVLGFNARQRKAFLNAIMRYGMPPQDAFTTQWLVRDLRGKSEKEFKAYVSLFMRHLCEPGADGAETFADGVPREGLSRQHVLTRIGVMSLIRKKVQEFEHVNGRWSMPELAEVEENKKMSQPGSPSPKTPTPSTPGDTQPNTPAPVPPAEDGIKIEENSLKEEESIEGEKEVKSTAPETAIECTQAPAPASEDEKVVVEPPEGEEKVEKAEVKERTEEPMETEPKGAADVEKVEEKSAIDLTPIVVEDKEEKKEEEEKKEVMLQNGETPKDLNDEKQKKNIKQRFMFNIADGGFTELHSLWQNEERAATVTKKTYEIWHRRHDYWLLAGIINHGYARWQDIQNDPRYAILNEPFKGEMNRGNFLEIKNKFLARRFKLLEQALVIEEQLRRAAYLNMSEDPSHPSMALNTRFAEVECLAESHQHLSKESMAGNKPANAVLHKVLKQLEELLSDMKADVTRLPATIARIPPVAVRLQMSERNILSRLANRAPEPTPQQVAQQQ
UniProt Q9UKL0: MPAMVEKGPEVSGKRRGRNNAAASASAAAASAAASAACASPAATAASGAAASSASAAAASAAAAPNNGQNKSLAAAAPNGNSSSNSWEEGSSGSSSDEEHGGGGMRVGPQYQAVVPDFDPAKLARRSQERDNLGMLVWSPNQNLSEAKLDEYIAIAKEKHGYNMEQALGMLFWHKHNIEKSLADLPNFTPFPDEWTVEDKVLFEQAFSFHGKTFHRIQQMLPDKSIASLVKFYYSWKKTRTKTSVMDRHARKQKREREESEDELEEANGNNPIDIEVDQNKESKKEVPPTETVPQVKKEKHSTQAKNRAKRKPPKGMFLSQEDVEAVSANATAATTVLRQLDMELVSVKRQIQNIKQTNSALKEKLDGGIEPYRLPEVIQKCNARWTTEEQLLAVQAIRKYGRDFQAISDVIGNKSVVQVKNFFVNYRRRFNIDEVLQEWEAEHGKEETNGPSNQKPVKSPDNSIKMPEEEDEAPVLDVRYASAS
UniProt P55854, residues 1-92: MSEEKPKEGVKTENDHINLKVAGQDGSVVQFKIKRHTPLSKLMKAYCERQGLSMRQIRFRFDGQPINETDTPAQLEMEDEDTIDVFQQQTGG
UniProt Q13263: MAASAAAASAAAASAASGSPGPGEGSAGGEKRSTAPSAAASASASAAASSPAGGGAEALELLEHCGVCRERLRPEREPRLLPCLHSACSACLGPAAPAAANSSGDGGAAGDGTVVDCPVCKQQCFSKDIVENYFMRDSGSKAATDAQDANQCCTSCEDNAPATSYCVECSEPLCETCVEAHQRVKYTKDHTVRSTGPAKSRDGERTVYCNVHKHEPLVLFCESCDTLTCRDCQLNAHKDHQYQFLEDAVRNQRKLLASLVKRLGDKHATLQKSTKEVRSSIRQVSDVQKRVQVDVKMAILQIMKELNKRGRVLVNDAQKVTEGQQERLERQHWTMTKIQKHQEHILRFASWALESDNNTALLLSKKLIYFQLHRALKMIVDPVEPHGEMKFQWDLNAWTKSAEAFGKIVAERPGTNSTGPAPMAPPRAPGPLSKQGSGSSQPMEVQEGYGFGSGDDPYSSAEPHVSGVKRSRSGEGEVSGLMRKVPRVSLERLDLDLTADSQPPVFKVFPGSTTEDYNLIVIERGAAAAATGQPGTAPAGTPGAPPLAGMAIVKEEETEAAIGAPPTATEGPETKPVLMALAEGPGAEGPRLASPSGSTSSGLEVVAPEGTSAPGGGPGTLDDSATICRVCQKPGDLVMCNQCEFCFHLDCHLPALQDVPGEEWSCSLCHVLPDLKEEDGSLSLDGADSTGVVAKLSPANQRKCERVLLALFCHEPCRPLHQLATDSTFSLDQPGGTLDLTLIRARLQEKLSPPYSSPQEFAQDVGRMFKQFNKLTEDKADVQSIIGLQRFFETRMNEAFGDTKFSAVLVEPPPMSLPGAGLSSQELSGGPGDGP
UniProt P83916: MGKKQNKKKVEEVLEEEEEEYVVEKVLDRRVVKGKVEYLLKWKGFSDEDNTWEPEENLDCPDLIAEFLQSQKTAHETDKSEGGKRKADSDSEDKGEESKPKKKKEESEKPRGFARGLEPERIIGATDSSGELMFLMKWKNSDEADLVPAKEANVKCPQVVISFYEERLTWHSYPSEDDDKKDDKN

What was measured:
[1] = biological target: T1, ZMYM2 (endogenous, U2OS cells) (human (endogenous in U2OS)) (UniProt Q9UBW7); experiment: affinity purification with mass spectrometry; RIME: U2OS-derived cells fixed with DMA then 1% formaldehyde, sonicated; IP with anti-flag antibody (Flag-ZMYM2 line) or antibody against endogenous ZMYM2 on beads overnight at 4 °C; buffers with 20 mM NEM and 30 mM IAA; 10 RIPA washes; on-bead trypsin; Orbitrap; three experiments
T1 sequence: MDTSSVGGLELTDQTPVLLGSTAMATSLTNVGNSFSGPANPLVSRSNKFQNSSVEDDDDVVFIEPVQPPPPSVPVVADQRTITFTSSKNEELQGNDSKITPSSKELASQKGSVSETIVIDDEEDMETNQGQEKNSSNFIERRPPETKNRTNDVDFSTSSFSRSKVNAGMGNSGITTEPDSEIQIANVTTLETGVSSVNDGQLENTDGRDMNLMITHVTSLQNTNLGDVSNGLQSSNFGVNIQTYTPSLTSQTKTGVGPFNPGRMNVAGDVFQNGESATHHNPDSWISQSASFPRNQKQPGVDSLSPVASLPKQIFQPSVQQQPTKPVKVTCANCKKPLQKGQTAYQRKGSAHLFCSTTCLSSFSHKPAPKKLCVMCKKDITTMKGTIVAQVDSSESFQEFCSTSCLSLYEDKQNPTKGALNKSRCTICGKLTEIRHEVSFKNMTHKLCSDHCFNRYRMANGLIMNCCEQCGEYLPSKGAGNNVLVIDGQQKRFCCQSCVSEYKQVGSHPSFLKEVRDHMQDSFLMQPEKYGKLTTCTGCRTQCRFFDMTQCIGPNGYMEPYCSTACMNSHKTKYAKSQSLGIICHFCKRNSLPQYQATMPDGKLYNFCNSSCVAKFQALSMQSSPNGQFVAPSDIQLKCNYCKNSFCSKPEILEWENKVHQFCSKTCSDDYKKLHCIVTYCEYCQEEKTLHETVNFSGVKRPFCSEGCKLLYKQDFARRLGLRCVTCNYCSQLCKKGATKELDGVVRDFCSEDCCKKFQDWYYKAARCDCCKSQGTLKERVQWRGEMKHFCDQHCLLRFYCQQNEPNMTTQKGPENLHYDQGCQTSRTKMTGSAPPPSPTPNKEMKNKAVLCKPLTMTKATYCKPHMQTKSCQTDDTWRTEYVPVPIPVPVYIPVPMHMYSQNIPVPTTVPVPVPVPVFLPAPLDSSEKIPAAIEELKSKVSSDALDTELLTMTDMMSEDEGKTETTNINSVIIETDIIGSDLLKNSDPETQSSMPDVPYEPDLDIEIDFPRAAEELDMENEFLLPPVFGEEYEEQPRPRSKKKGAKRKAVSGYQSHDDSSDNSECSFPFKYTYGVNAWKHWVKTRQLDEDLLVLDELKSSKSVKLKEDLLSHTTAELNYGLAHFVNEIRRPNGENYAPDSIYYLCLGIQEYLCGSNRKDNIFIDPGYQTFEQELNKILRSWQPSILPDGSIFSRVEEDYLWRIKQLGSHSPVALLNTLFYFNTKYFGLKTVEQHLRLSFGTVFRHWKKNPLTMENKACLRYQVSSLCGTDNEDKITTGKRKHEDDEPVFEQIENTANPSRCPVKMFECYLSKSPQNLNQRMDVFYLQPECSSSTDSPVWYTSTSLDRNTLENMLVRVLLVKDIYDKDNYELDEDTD

[2] = biological target: T2, Flag-tagged ZMYM2 (stable U2OS-Flp-in cell line flag-ZMYM2(WT)) (UniProt Q9UBW7); experiment: as above
T2 sequence: T1 sequence

binding [1]: binds
binding [2]: binds
Molecule: CHD4 (from UniProt Q14839 1-1912)

binding [1]: binds
binding [2]: binds
Molecule: CoREST (from UniProt Q9UKL0 1-485)

binding [1]: binds
binding [2]: binds
Molecule: SUMO3 (from UniProt P55854 1-92)

binding [1]: binds
binding [2]: binds
Molecule: TRIM28 (endogenous, U2OS cells) (from UniProt Q13263 1-835)

The remaining lines, values behind:

Molecule: CBX1/HP1β (from UniProt P83916 1-185)
binding [1]: binds
binding [2]: binds

B1: ADNP (endogenous, U2OS cells) (protein, UniProt Q9H2P0 1-1102)
chain: MFQLPVNNLGSLRKARKTVKKILSDIGLEYCKEHIEDFKQFEPNDFYLKNTTWEDVGLWDPSLTKNQDYRTKPFCCSACPFSSKFFSAYKSHFRNVHSEDFENRILLNCPYCTFNADKKTLETHIKIFHAPNASAPSSSLSTFKDKNKNDGLKPKQADSVEQAVYYCKKCTYRDPLYEIVRKHIYREHFQHVAAPYIAKAGEKSLNGAVPLGSNAREESSIHCKRCLFMPKSYEALVQHVIEDHERIGYQVTAMIGHTNVVVPRSKPLMLIAPKPQDKKSMGLPPRIGSLASGNVRSLPSQQMVNRLSIPKPNLNSTGVNMMSSVHLQQNNYGVKSVGQGYSVGQSMRLGLGGNAPVSIPQQSQSVKQLLPSGNGRSYGLGSEQRSQAPARYSLQSANASSLSSGQLKSPSLSQSQASRVLGQSSSKPAAAATGPPPGNTSSTQKWKICTICNELFPENVYSVHFEKEHKAEKVPAVANYIMKIHNFTSKCLYCNRYLPTDTLLNHMLIHGLSCPYCRSTFNDVEKMAAHMRMVHIDEEMGPKTDSTLSFDLTLQQGSHTNIHLLVTTYNLRDAPAESVAYHAQNNPPVPPKPQPKVQEKADIPVKSSPQAAVPYKKDVGKTLCPLCFSILKGPISDALAHHLRERHQVIQTVHPVEKKLTYKCIHCLGVYTSNMTASTITLHLVHCRGVGKTQNGQDKTNAPSRLNQSPSLAPVKRTYEQMEFPLLKKRKLDDDSDSPSFFEEKPEEPVVLALDPKGHEDDSYEARKSFLTKYFNKQPYPTRREIEKLAASLWLWKSDIASHFSNKRKKCVRDCEKYKPGVLLGFNMKELNKVKHEMDFDAEWLFENHDEKDSRVNASKTADKKLNLGKEDDSSSDSFENLEEESNESGSPFDPVFEVEPKISNDNPEEHVLKVIPEDASESEEKLDQKEDGSKYETIHLTEEPTKLMHNASDSEVDQDDVVEWKDGASPSESGPGSQQVSDFEDNTCEMKPGTWSDESSQSEDARSSKPAAKKKATMQGDREQLKWKNSSYGKVEGFWSKDQSQWKNASENDERLSNPQIEWQNSTIDSEDGEQFDNMTDGVAEPMHGSLAGVKLSSQQA
binding [1]: binds
binding [2]: binds

B2: ADNP2 (protein, UniProt Q6IQ32 1-1131)
chain: MFQIPVENLDNIRKVRKKVKGILVDIGLDSCKELLKDLKGFDPGEKYFHNTSWGDVSLWEPSGKKVRYRTKPYCCGLCKYSTKVLTSFKNHLHRYHEDEIDQELVIPCPNCVFASQPKVVGRHFRMFHAPVRKVQNYTVNILGETKSSRSDVISFTCLKCNFSNTLYYSMKKHVLVAHFHYLINSYFGLRTEEMGEQPKTNDTVSIEKIPPPDKYYCKKCNANASSQDALMYHILTSDIHRDLENKLRSVISEHIKRTGLLKQTHIAPKPAAHLAAPANGSAPSAPAQPPCFHLALPQNSPSPAAGQPVTVAQGAPGSLTHSPPAAGQSHMTLVSSPLPVGQNSLTLQPPAPQPVFLSHGVPLHQSVNPPVLPLSQPVGPVNKSVGTSVLPINQTVRPGVLPLTQPVGPINRPVGPGVLPVSPSVTPGVLQAVSPGVLSVSRAVPSGVLPAGQMTPAGQMTPAGVIPGQTATSGVLPTGQMVQSGVLPVGQTAPSRVLPPGQTAPLRVISAGQVVPSGLLSPNQTVSSSAVVPVNQGVNSGVLQLSQPVVSGVLPVGQPVRPGVLQLNQTVGTNILPVNQPVRPGASQNTTFLTSGSILRQLIPTGKQVNGIPTYTLAPVSVTLPVPPGGLATVAPPQMPIQLLPSGAAAPMAGSMPGMPSPPVLVNAAQSVFVQASSSAADTNQVLKQAKQWKTCPVCNELFPSNVYQVHMEVAHKHSESKSGEKLEPEKLAACAPFLKWMREKTVRCLSCKCLVSEEELIHHLLMHGLGCLFCPCTFHDIKGLSEHSRNRHLGKKKLPMDYSNRGFQLDVDANGNLLFPHLDFITILPKEKLGEREVYLAILAGIHSKSLVPVYVKVRPQAEGTPGSTGKRVSTCPFCFGPFVTTEAYELHLKERHHIMPTVHTVLKSPAFKCIHCCGVYTGNMTLAAIAVHLVRCRSAPKDSSSDLQAQPGFIHNSELLLVSGEVMHDSSFSVKRKLPDGHLGAEDQRHGEEQPPILNADAAPGPEKVTSVVPFKRQRNESRTEGPIVKDEALQILALDPKKYEGRSYEEKKQFLKDYFHKKPYPSKKEIELLSSLFWVWKIDVASFFGKRRYICMKAIKNHKPSVLLGFDMSELKNVKHRLNFEYEP
binding [1]: binds
binding [2]: binds

No constants are given. Whether binding was seen depends on the method and setting. In cells and extracts the contact can be indirect. Here binding means that the protein was enriched with, or labelled near, the bait; the list need not be complete. For some assays here: Tags and fused reporters may be left off the sequences shown. One block for each molecule: values may come before it.
